The list shows a part of the results.
Assays:
Assay in all cases: log2 fold change, soluble protein after heating vs DMSO (PISA); higher = thermal stabilisation; K562 cells, 10 uM, 30 min; active = over 0.2 and 3.5 SD of the protein, either way, in both replicates (recomputed)
[1] = compound: C1=CC=C(C=C1)[C@H](COC2=CC3=C(C=C2)NC(=O)N3)NC(=O)C4=CC=CN(C4=O)CC5=CC(=C(C=C5)F)F
Procedure, shortened: (§1)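 Soluble protein was quantified by TMTpro 16plex LC-MS/MS after channel sums were equalised. It was obtained as the supernatant after 21,000xg for 90 min from pooled aliquots of K562 cells (2×10^6 cells/mL, 10 μM compound, 30 min) heated for 3 min across 48°C-58°C and extracted in PBS with 0.5% NP-40 at 4°C. Thermal stability values are relative to control samples and come from duplicates. They are given as log2 fold changes.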

By UniProt entry, the sequences of proteins in these tests, tags left out. Where a name states a change or a piece, a line headed by the entry shows the natural chain unless it says otherwise.
UniProt Q15005: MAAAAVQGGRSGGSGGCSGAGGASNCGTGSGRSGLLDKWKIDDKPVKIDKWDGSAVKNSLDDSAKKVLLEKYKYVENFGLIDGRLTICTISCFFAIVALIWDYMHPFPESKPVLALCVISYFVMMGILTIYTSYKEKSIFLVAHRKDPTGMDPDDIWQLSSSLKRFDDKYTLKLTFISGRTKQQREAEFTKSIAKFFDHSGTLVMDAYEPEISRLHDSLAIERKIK
UniProt Q9C0H9: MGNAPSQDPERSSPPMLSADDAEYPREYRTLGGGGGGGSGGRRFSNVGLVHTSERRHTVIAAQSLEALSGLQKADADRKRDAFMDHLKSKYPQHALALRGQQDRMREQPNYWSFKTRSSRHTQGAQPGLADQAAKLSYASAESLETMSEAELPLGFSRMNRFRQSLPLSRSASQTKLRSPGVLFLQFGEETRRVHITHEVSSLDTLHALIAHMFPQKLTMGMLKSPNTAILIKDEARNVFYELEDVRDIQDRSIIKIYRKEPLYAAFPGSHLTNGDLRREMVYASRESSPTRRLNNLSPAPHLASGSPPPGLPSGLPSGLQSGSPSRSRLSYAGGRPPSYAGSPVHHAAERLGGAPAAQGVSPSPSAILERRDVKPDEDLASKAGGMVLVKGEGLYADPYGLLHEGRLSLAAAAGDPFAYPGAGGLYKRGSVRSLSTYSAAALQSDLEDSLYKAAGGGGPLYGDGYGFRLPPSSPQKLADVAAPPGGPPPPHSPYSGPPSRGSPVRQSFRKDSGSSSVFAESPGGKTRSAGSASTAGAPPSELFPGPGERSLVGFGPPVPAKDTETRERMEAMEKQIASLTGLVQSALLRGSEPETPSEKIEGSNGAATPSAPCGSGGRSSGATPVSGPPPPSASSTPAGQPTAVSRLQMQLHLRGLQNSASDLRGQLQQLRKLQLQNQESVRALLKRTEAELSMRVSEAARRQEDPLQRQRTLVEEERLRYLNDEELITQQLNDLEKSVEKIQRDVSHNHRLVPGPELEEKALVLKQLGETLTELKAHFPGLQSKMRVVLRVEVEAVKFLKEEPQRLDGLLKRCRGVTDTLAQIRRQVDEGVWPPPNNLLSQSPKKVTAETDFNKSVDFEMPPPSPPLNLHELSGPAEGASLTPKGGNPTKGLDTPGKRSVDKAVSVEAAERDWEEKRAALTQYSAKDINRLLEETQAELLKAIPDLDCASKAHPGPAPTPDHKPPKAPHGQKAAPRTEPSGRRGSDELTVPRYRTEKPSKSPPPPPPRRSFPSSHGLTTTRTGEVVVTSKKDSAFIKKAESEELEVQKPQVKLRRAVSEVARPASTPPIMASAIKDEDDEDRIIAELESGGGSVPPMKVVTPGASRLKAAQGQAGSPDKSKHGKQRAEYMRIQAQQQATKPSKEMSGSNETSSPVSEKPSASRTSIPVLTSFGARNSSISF
UniProt P35325: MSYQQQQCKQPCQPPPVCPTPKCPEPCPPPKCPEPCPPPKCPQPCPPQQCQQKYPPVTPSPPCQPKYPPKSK
UniProt Q9NY15: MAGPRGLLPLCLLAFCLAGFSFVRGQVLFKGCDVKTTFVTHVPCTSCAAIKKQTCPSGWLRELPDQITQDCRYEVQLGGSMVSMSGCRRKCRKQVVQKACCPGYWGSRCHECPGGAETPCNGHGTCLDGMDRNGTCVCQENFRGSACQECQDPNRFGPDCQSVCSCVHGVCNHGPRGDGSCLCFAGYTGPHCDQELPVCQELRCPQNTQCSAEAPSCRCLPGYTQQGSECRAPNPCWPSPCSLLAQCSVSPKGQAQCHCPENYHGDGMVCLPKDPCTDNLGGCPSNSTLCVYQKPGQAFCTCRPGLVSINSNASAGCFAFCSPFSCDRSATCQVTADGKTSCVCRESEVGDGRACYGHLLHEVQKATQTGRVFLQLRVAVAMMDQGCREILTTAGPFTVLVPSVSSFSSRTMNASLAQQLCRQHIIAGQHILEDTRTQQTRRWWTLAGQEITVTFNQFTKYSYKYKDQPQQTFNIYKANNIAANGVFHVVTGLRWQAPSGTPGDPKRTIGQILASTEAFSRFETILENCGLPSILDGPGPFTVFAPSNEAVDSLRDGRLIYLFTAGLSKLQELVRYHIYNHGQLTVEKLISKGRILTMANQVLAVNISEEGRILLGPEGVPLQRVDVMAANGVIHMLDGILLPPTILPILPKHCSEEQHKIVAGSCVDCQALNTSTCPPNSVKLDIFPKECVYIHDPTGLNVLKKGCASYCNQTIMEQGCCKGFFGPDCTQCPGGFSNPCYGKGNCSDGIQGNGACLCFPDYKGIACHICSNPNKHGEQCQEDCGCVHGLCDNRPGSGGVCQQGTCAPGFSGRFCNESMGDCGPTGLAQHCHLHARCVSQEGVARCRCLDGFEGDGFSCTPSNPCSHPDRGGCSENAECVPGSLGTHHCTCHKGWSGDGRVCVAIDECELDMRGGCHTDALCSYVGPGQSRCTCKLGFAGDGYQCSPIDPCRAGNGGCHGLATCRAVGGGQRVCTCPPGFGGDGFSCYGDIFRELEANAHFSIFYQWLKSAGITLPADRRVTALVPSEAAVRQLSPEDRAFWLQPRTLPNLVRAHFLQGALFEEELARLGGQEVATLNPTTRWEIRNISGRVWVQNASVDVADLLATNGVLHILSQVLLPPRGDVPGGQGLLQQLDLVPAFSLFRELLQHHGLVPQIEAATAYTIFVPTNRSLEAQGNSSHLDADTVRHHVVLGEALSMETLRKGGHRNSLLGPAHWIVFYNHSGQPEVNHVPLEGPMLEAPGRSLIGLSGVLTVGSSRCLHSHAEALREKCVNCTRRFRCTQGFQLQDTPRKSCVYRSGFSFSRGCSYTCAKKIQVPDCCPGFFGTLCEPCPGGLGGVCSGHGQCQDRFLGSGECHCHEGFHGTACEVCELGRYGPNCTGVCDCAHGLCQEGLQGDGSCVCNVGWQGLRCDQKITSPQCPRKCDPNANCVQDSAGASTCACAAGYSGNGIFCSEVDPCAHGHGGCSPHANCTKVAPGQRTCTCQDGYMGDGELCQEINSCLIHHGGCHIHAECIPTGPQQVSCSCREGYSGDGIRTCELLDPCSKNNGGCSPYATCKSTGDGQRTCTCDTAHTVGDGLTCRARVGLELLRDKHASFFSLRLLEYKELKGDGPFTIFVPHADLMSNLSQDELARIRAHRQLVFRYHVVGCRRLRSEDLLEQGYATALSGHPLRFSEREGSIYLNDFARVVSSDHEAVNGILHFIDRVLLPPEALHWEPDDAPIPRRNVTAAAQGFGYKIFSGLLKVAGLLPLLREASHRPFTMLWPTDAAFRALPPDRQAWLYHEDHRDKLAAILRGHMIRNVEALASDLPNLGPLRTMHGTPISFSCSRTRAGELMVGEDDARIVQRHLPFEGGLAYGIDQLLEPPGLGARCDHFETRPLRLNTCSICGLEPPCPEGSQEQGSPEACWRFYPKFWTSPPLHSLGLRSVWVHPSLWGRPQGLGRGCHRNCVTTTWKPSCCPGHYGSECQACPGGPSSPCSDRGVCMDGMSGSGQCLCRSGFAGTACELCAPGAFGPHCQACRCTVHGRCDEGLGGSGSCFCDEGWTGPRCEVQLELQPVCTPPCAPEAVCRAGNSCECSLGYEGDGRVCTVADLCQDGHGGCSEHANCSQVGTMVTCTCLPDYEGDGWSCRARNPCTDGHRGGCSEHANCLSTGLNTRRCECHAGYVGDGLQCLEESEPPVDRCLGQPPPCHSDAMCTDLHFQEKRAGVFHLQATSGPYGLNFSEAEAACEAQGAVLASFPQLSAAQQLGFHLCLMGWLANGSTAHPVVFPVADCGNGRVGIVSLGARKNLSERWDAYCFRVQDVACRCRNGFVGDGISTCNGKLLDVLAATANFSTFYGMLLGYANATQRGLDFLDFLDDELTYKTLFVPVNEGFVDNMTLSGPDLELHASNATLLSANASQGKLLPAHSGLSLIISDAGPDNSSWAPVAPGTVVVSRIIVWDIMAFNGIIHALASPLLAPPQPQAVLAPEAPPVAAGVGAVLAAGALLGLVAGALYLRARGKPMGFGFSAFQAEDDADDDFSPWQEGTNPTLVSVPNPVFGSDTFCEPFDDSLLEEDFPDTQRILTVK
UniProt Q9Y6N5: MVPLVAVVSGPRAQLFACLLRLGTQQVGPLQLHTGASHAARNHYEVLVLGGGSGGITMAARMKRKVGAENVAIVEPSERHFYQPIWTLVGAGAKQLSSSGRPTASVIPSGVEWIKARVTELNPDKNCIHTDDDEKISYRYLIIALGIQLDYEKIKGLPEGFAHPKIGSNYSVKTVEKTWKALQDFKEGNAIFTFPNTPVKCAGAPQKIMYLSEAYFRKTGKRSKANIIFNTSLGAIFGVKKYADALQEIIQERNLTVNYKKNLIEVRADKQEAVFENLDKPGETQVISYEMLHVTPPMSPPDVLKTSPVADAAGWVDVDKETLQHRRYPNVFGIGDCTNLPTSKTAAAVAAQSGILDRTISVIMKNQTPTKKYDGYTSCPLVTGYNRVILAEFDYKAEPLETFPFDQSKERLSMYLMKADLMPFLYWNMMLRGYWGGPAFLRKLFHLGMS
UniProt Q7Z6B7: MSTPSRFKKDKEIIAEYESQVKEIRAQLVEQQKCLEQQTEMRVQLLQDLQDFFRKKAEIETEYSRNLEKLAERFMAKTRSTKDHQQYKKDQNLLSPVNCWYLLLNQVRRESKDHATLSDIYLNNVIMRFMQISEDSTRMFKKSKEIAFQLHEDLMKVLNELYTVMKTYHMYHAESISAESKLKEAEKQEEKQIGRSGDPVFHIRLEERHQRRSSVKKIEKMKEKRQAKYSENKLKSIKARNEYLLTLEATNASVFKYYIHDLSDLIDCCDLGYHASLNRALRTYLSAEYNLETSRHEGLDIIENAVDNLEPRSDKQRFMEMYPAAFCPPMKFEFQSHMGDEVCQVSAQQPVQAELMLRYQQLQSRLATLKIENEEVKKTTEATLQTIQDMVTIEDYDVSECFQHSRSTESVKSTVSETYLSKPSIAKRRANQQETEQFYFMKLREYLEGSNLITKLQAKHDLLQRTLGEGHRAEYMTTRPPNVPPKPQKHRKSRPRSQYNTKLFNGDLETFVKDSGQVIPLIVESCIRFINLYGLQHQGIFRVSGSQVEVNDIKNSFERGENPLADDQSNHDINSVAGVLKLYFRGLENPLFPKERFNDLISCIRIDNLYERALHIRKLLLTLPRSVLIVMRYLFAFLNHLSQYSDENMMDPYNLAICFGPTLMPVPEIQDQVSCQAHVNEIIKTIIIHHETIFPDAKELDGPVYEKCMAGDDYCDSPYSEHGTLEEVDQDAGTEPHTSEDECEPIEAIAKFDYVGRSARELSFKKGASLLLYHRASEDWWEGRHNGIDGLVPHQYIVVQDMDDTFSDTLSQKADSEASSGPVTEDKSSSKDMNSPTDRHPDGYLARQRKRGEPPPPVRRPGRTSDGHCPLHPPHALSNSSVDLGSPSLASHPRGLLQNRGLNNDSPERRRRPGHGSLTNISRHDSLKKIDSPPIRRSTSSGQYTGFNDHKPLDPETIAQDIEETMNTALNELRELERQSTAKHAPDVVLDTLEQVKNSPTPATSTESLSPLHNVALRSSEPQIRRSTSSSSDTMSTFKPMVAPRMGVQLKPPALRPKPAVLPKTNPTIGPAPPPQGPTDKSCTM
UniProt Q9NUQ6: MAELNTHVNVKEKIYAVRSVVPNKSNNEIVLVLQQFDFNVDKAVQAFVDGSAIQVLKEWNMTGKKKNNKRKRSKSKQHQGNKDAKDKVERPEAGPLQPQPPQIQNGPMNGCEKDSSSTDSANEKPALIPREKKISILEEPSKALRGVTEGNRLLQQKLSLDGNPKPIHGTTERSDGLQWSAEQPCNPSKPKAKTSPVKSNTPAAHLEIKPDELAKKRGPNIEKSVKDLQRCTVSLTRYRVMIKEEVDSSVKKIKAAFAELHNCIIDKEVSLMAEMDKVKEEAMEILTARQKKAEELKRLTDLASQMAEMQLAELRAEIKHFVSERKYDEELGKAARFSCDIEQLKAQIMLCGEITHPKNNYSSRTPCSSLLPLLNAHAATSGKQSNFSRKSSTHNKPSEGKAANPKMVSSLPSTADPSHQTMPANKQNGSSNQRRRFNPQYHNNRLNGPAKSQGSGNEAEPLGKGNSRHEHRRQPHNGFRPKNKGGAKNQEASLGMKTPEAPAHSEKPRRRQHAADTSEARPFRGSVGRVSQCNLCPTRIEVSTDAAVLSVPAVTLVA
UniProt P49675, whole entry, looked up: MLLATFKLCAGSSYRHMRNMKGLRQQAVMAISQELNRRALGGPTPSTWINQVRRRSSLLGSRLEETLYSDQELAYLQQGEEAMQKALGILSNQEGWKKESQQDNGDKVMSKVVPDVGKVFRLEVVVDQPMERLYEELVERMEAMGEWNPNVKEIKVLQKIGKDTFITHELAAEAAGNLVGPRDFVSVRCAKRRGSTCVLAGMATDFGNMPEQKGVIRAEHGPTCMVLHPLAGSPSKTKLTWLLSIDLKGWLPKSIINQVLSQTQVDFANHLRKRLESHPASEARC

[2] = compound: CC1=C(SC2=C1C(=N[C@H](C3=NN=C(N32)C)CC(=O)N)C4=CC=C(C=C4)Cl)C
Procedure, shortened: as §1

[3] = compound: CC1=C2C(=CC=C1)N=C(N(C2=O)C3=CC=CC=C3C)CN4C=NC5=C(N=CN=C54)N
Procedure, shortened: as §1

[4] = compound: Cc1sc2c(c1C)C(c1ccc(Cl)cc1)=N[C@@H](CC(=O)OC(C)(C)C)c1nnc(C)n1-2
Procedure, shortened: as §1

[5] = compound: c1ccc([C@@H]2C[C@H]2NC2CCNCC2)cc1
Procedure, shortened: as §1

STAU2 (UniProt Q9NUL3)
log2 fold change [1]: inactive: 0.085
log2 fold change [2]: inactive: -0.064
log2 fold change [3]: inactive: -0.113
log2 fold change [4]: inactive: 0.352
log2 fold change [5]: inactive: 0.116

SPIRE2 (UniProt Q8WWL2)
log2 fold change [1]: inactive: -0.13
log2 fold change [2]: inactive: -0.04
log2 fold change [4]: inactive: 0.111
log2 fold change [5]: inactive: 0.397

SPCS2 (UniProt Q15005)
log2 fold change [1]: inactive: -0.011
log2 fold change [2]: inactive: 0.043
log2 fold change [3]: inactive: -0.034
log2 fold change [4]: inactive: -0.061
log2 fold change [5]: inactive: -0.031

SPATA31E1 (UniProt Q6ZUB1)
log2 fold change [1]: inactive: -0.008
log2 fold change [2]: inactive: 0.175
log2 fold change [3]: inactive: 0.497
log2 fold change [5]: inactive: 0.061

SREBF2 (UniProt Q12772)
log2 fold change [1]: inactive: -0.032
log2 fold change [3]: inactive: 0.133

SRCIN1 (UniProt Q9C0H9)
log2 fold change [1]: inactive: 0.005
log2 fold change [3]: inactive: 0.076

STIM2 isoform 2 (UniProt Q9P246)
log2 fold change [3]: inactive: -0.04
log2 fold change [4]: inactive: 0.018

SSBP2 (UniProt P81877)
log2 fold change [1]: inactive: 0.077
log2 fold change [2]: inactive: 0.117
log2 fold change [5]: inactive: 0.207

SSB (UniProt E7ERC4)
log2 fold change [3]: inactive: 0.188

SPRR2B (UniProt P35325)
log2 fold change [1]: inactive: 0.312
log2 fold change [3]: inactive: 0.385

ST8SIA6 (UniProt P61647)
log2 fold change [1]: inactive: 0.053
log2 fold change [3]: inactive: 0.35

ST3GAL1 (UniProt Q11201)
log2 fold change [2]: inactive: 0.294
log2 fold change [5]: inactive: -0.377

STAT3 (UniProt P40763)
log2 fold change [1]: inactive: -0.033
log2 fold change [2]: inactive: 0.034
log2 fold change [3]: inactive: 0.1
log2 fold change [4]: inactive: 0.024
log2 fold change [5]: inactive: -0.006

STAB1 (UniProt Q9NY15)
log2 fold change [1]: inactive: -0.17
log2 fold change [2]: inactive: 0
log2 fold change [3]: inactive: 0.308
log2 fold change [5]: inactive: 0.128

STC2 (UniProt O76061)
log2 fold change [1]: inactive: -0.018
log2 fold change [3]: inactive: -0.826

SPR (UniProt P35270)
log2 fold change [1]: inactive: 0.026
log2 fold change [2]: inactive: 0.04
log2 fold change [3]: inactive: 0.031
log2 fold change [4]: inactive: -0.058
log2 fold change [5]: inactive: -0.105

SSBP4 (UniProt U3KPY3)
log2 fold change [3]: inactive: 0

SPDL1 (UniProt Q96EA4)
log2 fold change [2]: inactive: -0.034
log2 fold change [4]: inactive: 0.101
log2 fold change [5]: inactive: -0.028

SRSF9 (UniProt Q13242)
log2 fold change [1]: inactive: 0.045
log2 fold change [2]: inactive: -0.452
log2 fold change [3]: inactive: -0.38
log2 fold change [5]: inactive: 0.041

SQOR (UniProt Q9Y6N5)
log2 fold change [3]: inactive: -0.076

SRFBP1 (UniProt Q8NEF9)
log2 fold change [1]: inactive: 0.011
log2 fold change [2]: inactive: -0.14
log2 fold change [4]: inactive: 0.048
log2 fold change [5]: inactive: -0.013

SRGAP1 (UniProt Q7Z6B7)
log2 fold change [1]: inactive: 0.065
log2 fold change [3]: inactive: 0.072
log2 fold change [4]: inactive: 0.126

SPATS2L isoform 3 (UniProt Q9NUQ6)
log2 fold change [2]: inactive: -0.199
log2 fold change [5]: inactive: 0.144

SRRT (UniProt Q9BXP5)
log2 fold change [1]: inactive: -0.207
log2 fold change [2]: inactive: 0.056
log2 fold change [3]: inactive: 0.153
log2 fold change [4]: inactive: -0.024
log2 fold change [5]: inactive: -0.069

SPRED1 (UniProt Q7Z699)
log2 fold change [2]: inactive: 0.014
log2 fold change [3]: inactive: -0.221
log2 fold change [5]: inactive: 0.115

SPRED2 (UniProt Q7Z698)
log2 fold change [2]: inactive: 0.017
log2 fold change [5]: inactive: -0.042

SPATS2 (UniProt Q86XZ4)
log2 fold change [2]: inactive: -0.055
log2 fold change [3]: inactive: -0.154
log2 fold change [5]: inactive: 0.112

ST3GAL4 isoform 4 (UniProt Q11206)
log2 fold change [1]: inactive: -0.035
log2 fold change [2]: inactive: 0.008
log2 fold change [4]: inactive: -0.002
log2 fold change [5]: inactive: -0.256

STAR (UniProt P49675)
log2 fold change [3]: inactive: 0.223

SPINT1 (UniProt O43278)
log2 fold change [3]: inactive: -0.077

Source: the supplement of paper PMC10849652
